Assay results from paper PMC8320207.
Results are given in words; binding and its absence hold for the method and conditions named. In cells and extracts the contact can be indirect. Some binding calls cover weakened binding; strength is not graded here. Each block holds one binder with its values, some of them ahead of it.

The chains behind the UniProt entries cited, without tags or fusion partners.
UniProt Q04206: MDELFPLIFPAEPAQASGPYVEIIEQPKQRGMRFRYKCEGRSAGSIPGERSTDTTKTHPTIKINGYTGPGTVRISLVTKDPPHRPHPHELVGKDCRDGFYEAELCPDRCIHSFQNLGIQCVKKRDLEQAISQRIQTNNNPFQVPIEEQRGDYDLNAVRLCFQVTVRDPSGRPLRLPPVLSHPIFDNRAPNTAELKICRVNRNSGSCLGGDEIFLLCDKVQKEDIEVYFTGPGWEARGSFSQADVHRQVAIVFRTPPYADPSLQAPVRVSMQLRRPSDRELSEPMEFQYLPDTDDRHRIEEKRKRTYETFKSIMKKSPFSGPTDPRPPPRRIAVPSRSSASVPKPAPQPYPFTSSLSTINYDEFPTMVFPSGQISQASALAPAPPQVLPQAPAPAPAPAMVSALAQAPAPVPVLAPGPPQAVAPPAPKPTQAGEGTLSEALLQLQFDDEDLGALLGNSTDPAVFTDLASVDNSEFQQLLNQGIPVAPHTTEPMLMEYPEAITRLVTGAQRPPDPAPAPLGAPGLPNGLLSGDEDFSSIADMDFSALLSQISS

What was measured:
[1] = molecular target: NF-κB p65 (UniProt Q04206); assay: co-IP; IP and Western blot, cytoplasm, with rising doses of circIKBKB
[2] = molecular target: NF-κB p65, Q04206; assay: co-IP; IP and Western blot, nuclear, cells with circIKBKB overexpressed or silenced; settings: remark: other sources report otherwise

- binding [1]: binds
B1: inhibitor of NF-κB kinase subunit beta (IKKβ) (enzyme, UniProt O14920 1-756)
chain: MSWSPSLTTQTCGAWEMKERLGTGGFGNVIRWHNQETGEQIAIKQCRQELSPRNRERWCLEIQIMRRLTHPNVVAARDVPEGMQNLAPNDLPLLAMEYCQGGDLRKYLNQFENCCGLREGAILTLLSDIASALRYLHENRIIHRDLKPENIVLQQGEQRLIHKIIDLGYAKELDQGSLCTSFVGTLQYLAPELLEQQKYTVTVDYWSFGTLAFECITGFRPFLPNWQPVQWHSKVRQKSEVDIVVSEDLNGTVKFSSSLPYPNNLNSVLAERLEKWLQLMLMWHPRQRGTDPTYGPNGCFKALDDILNLKLVHILNMVTGTIHTYPVTEDESLQSLKARIQQDTGIPEEDQELLQEAGLALIPDKPATQCISDGKLNEGHTLDMDLVFLFDNSKITYETQISPRPQPESVSCILQEPKRNLAFFQLRKVWGQVWHSIQTLKEDCNRLQQGQRAAMMNLLRNNSCLSKMKNSMASMSQQLKAKLDFFKTSIQIDLEKYSEQTEFGITSDKLLLAWREMEQAVELCGRENEVKLLVERMMALQTDIVDLQRSPMGRKQGGTLDDLEEQARELYRRLREKPRDQRTEGDSQEMVRLLLQAIQSFEKKVRVIYTQLSKTVVCKQKALELLPKVEEVVSLMNEDEKTVVRLQEKRQKELWNLLKIACSKVRGPVSGSPDSMNASRLSQPGQLMSQPSTASNSLPEPAKKSEELVAEAHNLCTLLENAIQDTVREQDQSFTALDWSWLQTEEEEHSCLEQAS

- binding [2]: binds
B2: NF-κB inhibitor alpha (IκBα), P25963 1-317 (protein)
chain: MFQAAERPQEWAMEGPRDGLKKERLLDDRHDSGLDSMKDEEYEQMVKELQEIRLEPQEVPRGSEPWKQQLTEDGDSFLHLAIIHEEKALTMEVIRQVKGDLAFLNFQNNLQQTPLHLAVITNQPEIAEALLGAGCDPELRDFRGNTPLHLACEQGCLASVGVLTQSCTTPHLHSILKATNYNGHTCLHLASIHGYLGIVELLVSLGADVNAQEPCNGRTALHLAVDLQNPDLVSLLLKCGADVNRVTYQGYSPYQLTWGRPSTRIQQQLGQLTLENLQMLPESEDEESYDTESEFTEFTEDELPYDDCVFGGQRLTL
